According to PubChem BioAssay AID1671190 (National Center for Advancing Translational Sciences (NCATS), 2021):
The campaign covered roughly 580,000 compounds. About 6,100 (1.1%) were called active. The shares of active, inactive and inconclusive entries below differ from those in the screen. Calls come from the whole dose curve; as a rule, active = well fitted inhibition curve with a large enough effect; inconclusive = small, poorly fitted or top-dose-only effect, or another doubt; inactive = no such curve, though single readings can be large or run the other way. Potencies of inconclusive entries are doubtful fits and often do not repeat.

By UniProt entry, the sequences of proteins in these tests, tags left out. Where a name states a change or a piece, a line headed by the entry shows the natural chain unless it says otherwise.
UniProt P18054: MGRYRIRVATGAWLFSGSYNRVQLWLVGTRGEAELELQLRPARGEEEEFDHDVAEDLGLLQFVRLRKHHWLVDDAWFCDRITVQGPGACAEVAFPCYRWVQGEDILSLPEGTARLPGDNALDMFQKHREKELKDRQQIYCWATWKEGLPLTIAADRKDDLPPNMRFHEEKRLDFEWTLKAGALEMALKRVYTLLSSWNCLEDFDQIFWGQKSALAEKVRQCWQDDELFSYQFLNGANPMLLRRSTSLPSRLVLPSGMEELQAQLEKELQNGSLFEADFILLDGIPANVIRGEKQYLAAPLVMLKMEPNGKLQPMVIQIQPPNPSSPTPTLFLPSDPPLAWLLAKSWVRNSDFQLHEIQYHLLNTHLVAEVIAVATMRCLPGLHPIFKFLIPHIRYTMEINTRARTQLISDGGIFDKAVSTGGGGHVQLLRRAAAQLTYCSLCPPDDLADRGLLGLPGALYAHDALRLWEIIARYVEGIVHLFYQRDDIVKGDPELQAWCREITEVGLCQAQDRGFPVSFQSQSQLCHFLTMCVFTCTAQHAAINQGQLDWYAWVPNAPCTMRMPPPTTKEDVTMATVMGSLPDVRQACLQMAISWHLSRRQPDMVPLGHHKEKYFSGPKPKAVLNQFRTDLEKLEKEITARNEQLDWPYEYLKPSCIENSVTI

molecular target: Polyunsaturated fatty acid lipoxygenase ALOX12 (Homo sapiens) (UniProt P18054); assay: Primary qHTS assay for inhibitors of human arachidonate 12S-lipoxygenase (ALOX12): Round 2; details: purified 12hLO, xylenol orange hydroperoxide absorbance; series mostly up to 108 µM
Summary of the method: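 Purified human 12hLO (150 nM final) in 25 mM Hepes, 0.01% Triton X-100, pH 7.0 was preincubated 15 min at room temperature with compound. Then 40 uM arachidonic acid was added, 30 min. Hydroperoxide was read by Fe-XO absorbance ratio 573/405 nm.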
Potency is the fitted concentration of half-maximal effect.

SMILES	Potency
CCN1C(=O)/C(=C\c2nc3ccccc3c(=O)n2-c2ccccc2)c2ccccc21	inconclusive: 39.8 µM [inhibitor, partial curve, poor fit]
CC(C)c1nn(C)c2c1C(c1cccc3c1OC(C)(C)C3)CC(=O)N2 (centres undefined)	inactive
CC1CCN(c2nc(Cl)nc(Nc3ccc([N+](=O)[O-])cc3)n2)CC1	inactive
CC(SC1CCCC1)C(=O)Nc1ccnn1C(C)C (centres undefined)	inconclusive: 31.6 µM [inhibitor, full curve, poor fit]
CCOC(=O)c1cc(-c2ccccc2)sc1NC(=S)Nc1cc(C)ccn1	inconclusive: 2.51 µM [inhibitor, full curve, poor fit]
O=C(c1ccc(Br)cc1)c1sc(N2CCOCC2)nc1-c1ccccc1	inactive
COC(=O)C(NC(=O)c1ccc(Cl)cc1)(Nc1nc(C)cs1)C(F)(F)F (centres undefined)	inconclusive: 50.1 µM [inhibitor, partial curve, poor fit]
CC(=O)Nc1ccc2c(c1)N(C(C)=O)c1ccccc1CC2	inconclusive: 44.7 µM [inhibitor, partial curve, poor fit]
COc1ccccc1C(CCN(Cc1cccs1)C(C)=O)c1ccco1 (centres undefined)	inconclusive: 3.55 µM [inhibitor, full curve, poor fit]
CC1CCCC(C)N1CC(C)(C)NS(=O)(=O)c1ccc(Cl)cc1 (centres undefined)	inconclusive: 3.55 µM [inhibitor, full curve]
CCc1ccc(CNC(=O)C2CCN(C(=O)c3nnn4c3COC(c3ccc(C)cc3)C4)CC2)cc1 (centres undefined)	inactive
N#Cc1c(NC(=O)CSc2nnc(-c3ccncc3)n2CC2CCCO2)sc2c1CCCC2 (centres undefined)	inactive
COC(=O)c1c(C)[nH]c(C(=O)C(C)OC(=O)C2CC2)c1C (centres undefined)	inconclusive: 112 µM [inhibitor, single point]
Cc1cc(OC(=O)c2ccccc2[N+](=O)[O-])c([N+](=O)[O-])c(=O)[nH]1	inconclusive: 22.4 µM [inhibitor, partial curve]
CC(C)[S+](=O)([O-])N1CCC(c2nnc3n2C(C(=O)O)CC3)CC1 (centres undefined)	inconclusive: 11.2 µM [inhibitor, full curve, poor fit]
COC(=O)C1=CN(c2ccc(F)cc2)C(N)=C(C#N)C1c1cccc(OC)c1OC (centres undefined)	inconclusive: 100 µM [inhibitor, single point]
O=C(N/N=C(\c1ccccc1)c1cccnc1)C(O)(c1ccccc1)c1ccccc1	inactive
Oc1ccc2ccccc2c1C=NCc1ccccc1	inactive
CC(=O)c1ccc(NCC(=O)N2CCN(c3ccccc3)CC2)cc1	inconclusive: 12.6 µM [inhibitor, partial curve, poor fit]

Molecules from the list above containing a Cl atom, in the order listed:
SMILES	Potency
CC1CCN(c2nc(Cl)nc(Nc3ccc([N+](=O)[O-])cc3)n2)CC1	inactive
COC(=O)C(NC(=O)c1ccc(Cl)cc1)(Nc1nc(C)cs1)C(F)(F)F (centres undefined)	inconclusive: 50.1 µM [inhibitor, partial curve, poor fit]
CC1CCCC(C)N1CC(C)(C)NS(=O)(=O)c1ccc(Cl)cc1 (centres undefined)	inconclusive: 3.55 µM [inhibitor, full curve]
